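Whole-cell assay for inhibitors of Mycobacterium tuberculosis growth, labelled Cornell in the record; the read-out is not stated. The concentration is filed as 10 mM, unlikely as a test dose, so the dose is not known. The record gives no direction; compounds strong in two other growth screens of this library score well above the rest, so higher reads as stronger inhibition. About 53,000 compounds were tested under these conditions; 1.7% (about 900) showed 50% or more at least once.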

The filed quantity is “Percent Effect” (%).
The record does not define 0% and 100%; most values in the screen are far below 50% and negative numbers occur (in some assays of this library far below -100).
The compounds are a random part of those screened.

structure	effect
Cn1ccc(C(=O)NC2CCC23CCN(CC2CCOCC2)CC3)c1.O=C(O)C(F)(F)F (stereo not shown)	10.62%
CNC(=O)C1CN(C)CCN1c1nc(C)cc(C)n1 (stereo not shown)	-29.08%
O=C(O)C(F)(F)F.[H][C@]12CC[C@@]3(N=C(C)N(C)C3=O)[C@@]1([H])CN(CC(C)C)C2	7.034%
CCn1cnc(NC(=O)N2CCCC(c3ccccc3)CC2)n1 (stereo not shown)	32.55%
CCS(=O)(=O)NCCCNc1ncnc2cc(F)c(F)cc12	18.5%
O=C1CC(N2CCN(c3ccc(F)cc3)CC2)C(=O)N1Cc1cccs1 (stereo not shown)	42.8%
O=C(c1cccnc1)N1CCSCC1	15.84%
CC(C)=CCN1CCN(C(=O)C2CC2)CC1	6.891%
Cc1cc(C)n(CC(C)NCc2nc(-c3cccnc3)no2)n1 (stereo not shown)	-8.862%
Cc1ccsc1CN(C)CCc1scnc1C	-17.32%
CC(C)c1ccccc1OCCNC(=O)N1CCC2(CC1)OCCO2	-16.83%
CC(C)[C@H](NS(C)(=O)=O)C(=O)NCc1cc(-c2ccccc2)n[nH]1	3.404%
CCc1nnsc1C(=O)N(C)Cc1ccco1	-1.506%
CCOc1cc(C(=O)N2CCN(CC)CC2)cc2occc12	-3.141%
O=C(O)C(F)(F)F.[H][C@]12CCC[C@@]1(COc1ccccn1)CN(C(=O)CN(C)C)C2	7.388%
Cc1cn2c(CN(C)C(=O)c3cnc(N)c(Cl)c3)c(C)nc2s1	5.432%
CCCn1ccc(C(=O)N2CCC(C)CC2)n1	-32.68%
CCCC(=O)N1CCC(N2CC[C@@](O)(CCOC)[C@H](C)C2)CC1	18.26%
Cc1cccc(C)c1Nc1noc2c1CN(C(=O)c1c[nH]nc1C)CC2	42.88%
Cc1nc(C)c(CN2CCOC(CN(C)c3cccnn3)C2)s1 (stereo not shown)	-20.84%
CCN(Cc1cn(CC2CCNCC2)nn1)CC1CCCO1 (stereo not shown)	3.933%
OCCN(Cc1cccnc1)c1ncc(Br)cn1	8.979%
O=C(O)C(F)(F)F.[H][C@@]12CCN(c3cccnc3)C[C@]1([H])CN(C(=O)c1ccn(C)n1)C2	14.35%
O=C(O)C(F)(F)F.[H][C@]12CCC[C@@]1(COc1ccccn1)CN(S(C)(=O)=O)C2	24.51%
COC(=O)c1cccc(NC(=O)CCn2nc(-c3cccs3)oc2=O)c1	27.19%
CC(C)c1ocnc1C(=O)NC(c1nnc2n1CCNCC2)C(C)C (stereo not shown)	-74.9%
CC1CCN(S(=O)(=O)N2CCn3cccc3C2C)CC1 (stereo not shown)	10.52%
O=C(O)C(F)(F)F.[H][C@]12CCN(C(=O)Cc3ccc(F)cc3)C[C@@]1([H])OCCN(CCOC)C2	-25.61%
Cc1ncsc1C(=O)OCCN1CCCc2ccccc21	5.167%
CC(NC(=O)N1CCS(=O)(=O)CC1)c1ccc(F)cc1Cl (stereo not shown)	29.38%
Cc1nc(-c2ccc(S(=O)(=O)N3CCOCC3)cc2)co1	15.6%
CC(C)c1nc(CN2CCOC(Cn3cncn3)C2)cs1 (stereo not shown)	17.43%
Cc1cc(C(=O)N2CCN(Cn3cc(Cl)cn3)CC2)c(C)o1	-24.24%
COc1ccc(OC)c(Nc2nc3c(C)nn(C)c3c(=O)n2C)c1	18.28%
O=C(O)C(F)(F)F.[H][C@@]12CCN(C3CCOCC3)[C@]1([H])CC[C@@H](C(=O)NCc1cccs1)O2	8.537%
O=C(Cn1ccc2ccccc21)N1CCC(Oc2ncccc2Br)CC1	58.45%
CCn1ccnc1CN1CCN(c2ncnc3ccsc23)CC1	-14.67%
CCn1nc2c(cc1=O)CN(Cc1ccc(-n3cccn3)cc1)CC2	3.174%
CC(=O)NCCC(=O)Nc1cccc(N2CCN(CC3CC3)CC2)c1	-22.85%
COCC(=O)N1CCC(c2nc3ccc(-c4ccncc4)cn3n2)CC1.O=C(O)C(F)(F)F	2.152%
CCCc1nc(C)cc(N2Cc3cnn(CCO)c3C2)n1	-3.622%
CCOc1ccc(Cc2c(O)nc(SC)n(-c3ccccc3)c2=O)cc1	8.957%
O=C(O)C(F)(F)F.[H][C@@]12CCCO[C@]1([H])[C@@H](OC)CN2Cc1ccc(C)o1	-0.6889%
CN(C)c1cc(C2CCCNC2)ccn1.Cl.Cl (stereo not shown)	40.71%
Cc1n[nH]c(C)c1CCCNCc1cn(CCC(N)=O)c2ccccc12	-37.52%
CCOc1cc(C)c(-c2cc(N)[nH]n2)cc1OCC	10.44%
COc1c(CNC2CCOc3ccccc32)c(C(C)C)nn1C (stereo not shown)	22.54%
Cc1ccc(C)n1-c1c(C(=O)NCC(C)N(C)C)cnn1C (stereo not shown)	-1.154%
CN([C@@H]1CC[C@@H](N2CCOCC2)[C@@H]1O)S(=O)(=O)c1ccccc1	45.01%
CCn1cc(-c2cc(C(F)F)n3nc(CC(=O)O)nc3n2)cn1	-12.61%
Cc1ccc(C(=O)NCCS(C)(=O)=O)c(=O)[nH]1	-11.87%
N[C@H]1CN(C(=O)Cc2cc(F)cc(Cl)c2)C[C@@H]1C1CC1	26.68%
O=C(CN1CCOCC1)N1CCC2(CCCN(C3CCOCC3)C2=O)C1 (stereo not shown)	21.87%
O=C(CCO)N1CC2(CCN(c3ccccc3)C2)C1	-23.92%
CCC(C)NC(=O)NCCCn1nc2ccccn2c1=O (stereo not shown)	-6.847%
Cc1cc(NC(=O)CCN2CCn3c(nnc3C3CC3)C2)no1	15.02%
Cc1nn(C(C)C)c(C)c1NC(=O)c1ccccc1	-11.32%
O=C(O)c1nnn(-c2ccc(F)c(F)c2)c1-c1ccncc1	8.364%
O=C(NCC1Cn2nnc(-c3ccncc3)c2CO1)c1ccsc1.O=C(O)C(F)(F)F (stereo not shown)	7.518%
Cc1noc2nc3c(c(C(=O)/N=c4\[nH]ncs4)c12)CCC3	7.59%
NC(=O)C1CCCN1Cc1ccccc1NC(=O)Cc1cccs1 (stereo not shown)	-10.49%
O=C(c1ccsc1)N1CCc2c(COCc3ccncc3)cncc2C1	18.6%
CCc1csc(CCNC(=O)C2CC(=O)N(C(C)C)C2)n1 (stereo not shown)	-3.236%
CCC(CO)N(Cc1ccsc1)Cc1c(C)nn(C)c1Cl (stereo not shown)	18.11%
CC1CCN(S(=O)(=O)c2cccn(CC(=O)NC(C)(C)C)c2=O)CC1	17.13%
Cc1nc(-n2nc(C3CC3)cc2NC(=O)C(C)C)[nH]c(=O)c1C	77.31%
[H][C@]12CN(c3ccccn3)CCN1C[C@@H](CO)[C@@H]2c1ccccc1	20.14%
CCOc1cccc(CNc2cnn(CC(C)C)c2CC)c1	8.6%
Cc1ccc(S(=O)(=O)NC(=O)c2cccc(OCC(N)=O)c2)s1	15.84%
CCCn1ncc(C(=O)NC2CCN(CC3CCCO3)CC2)c1C (stereo not shown)	-11.28%
O=c1ccc(-c2ccccc2F)nn1CCN1CCCS1(=O)=O	12.11%

Some entries from above, unchanged:

structure	effect
CCc1nnsc1C(=O)N(C)Cc1ccco1	-1.506%
O=C(CCO)N1CC2(CCN(c3ccccc3)C2)C1	-23.92%
Cc1nn(C(C)C)c(C)c1NC(=O)c1ccccc1	-11.32%
Cc1nc(-c2ccc(S(=O)(=O)N3CCOCC3)cc2)co1	15.6%
CC(C)c1nc(CN2CCOC(Cn3cncn3)C2)cs1 (stereo not shown)	17.43%

The values are deposited in ChEMBL (CHEMBL3988442, “University of Dundee, Small-Polar-MMV Screening Library” (2021)).